Source: the supplement of paper PMC6411743
± gives the standard deviation of the averaged measurements. The entries are a selection whose mix differs from that of the whole data set.

Experiments:
Assay in all cases: NP40-soluble protein abundance relative to vehicle (solubility fold change) (ratio); higher = more soluble protein in presence of AMP-PNP
[1] = target: T1, UniProt O43310 and related entries
T1 sequence (whole entry): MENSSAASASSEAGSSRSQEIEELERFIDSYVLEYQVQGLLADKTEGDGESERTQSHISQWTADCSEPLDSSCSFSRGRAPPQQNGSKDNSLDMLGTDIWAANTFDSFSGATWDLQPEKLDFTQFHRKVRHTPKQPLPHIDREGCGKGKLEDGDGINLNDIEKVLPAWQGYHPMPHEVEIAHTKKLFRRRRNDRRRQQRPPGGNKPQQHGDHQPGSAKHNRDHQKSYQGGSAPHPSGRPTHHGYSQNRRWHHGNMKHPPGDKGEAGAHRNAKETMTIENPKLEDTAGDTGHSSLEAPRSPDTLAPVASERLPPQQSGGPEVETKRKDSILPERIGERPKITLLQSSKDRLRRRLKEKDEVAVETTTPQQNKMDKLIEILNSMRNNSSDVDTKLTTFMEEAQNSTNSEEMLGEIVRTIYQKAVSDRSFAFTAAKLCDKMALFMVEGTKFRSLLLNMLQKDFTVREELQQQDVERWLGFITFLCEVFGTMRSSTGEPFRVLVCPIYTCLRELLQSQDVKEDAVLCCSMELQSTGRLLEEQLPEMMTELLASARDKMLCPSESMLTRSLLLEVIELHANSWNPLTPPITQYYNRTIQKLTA
Method in brief: (§1)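 Eight concentrations, 0.1 to 10 mM, were tested on Jurkat crude lysate for 10 min at room temperature and then 3 min at 37 °C, in three independent experiments. The lysate was solubilised with 0.8% NP40 and benzonase, ultracentrifuged, and the supernatant TMT-labelled for LC-MS/MS. Each value is the fold change against the detergent-processed vehicle in its own replicate, from vsn-normalised intensities.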

UniProt O43318-2|O43318 = target: T2, UniProt O43318-2|O43318
T2 sequence (whole entry): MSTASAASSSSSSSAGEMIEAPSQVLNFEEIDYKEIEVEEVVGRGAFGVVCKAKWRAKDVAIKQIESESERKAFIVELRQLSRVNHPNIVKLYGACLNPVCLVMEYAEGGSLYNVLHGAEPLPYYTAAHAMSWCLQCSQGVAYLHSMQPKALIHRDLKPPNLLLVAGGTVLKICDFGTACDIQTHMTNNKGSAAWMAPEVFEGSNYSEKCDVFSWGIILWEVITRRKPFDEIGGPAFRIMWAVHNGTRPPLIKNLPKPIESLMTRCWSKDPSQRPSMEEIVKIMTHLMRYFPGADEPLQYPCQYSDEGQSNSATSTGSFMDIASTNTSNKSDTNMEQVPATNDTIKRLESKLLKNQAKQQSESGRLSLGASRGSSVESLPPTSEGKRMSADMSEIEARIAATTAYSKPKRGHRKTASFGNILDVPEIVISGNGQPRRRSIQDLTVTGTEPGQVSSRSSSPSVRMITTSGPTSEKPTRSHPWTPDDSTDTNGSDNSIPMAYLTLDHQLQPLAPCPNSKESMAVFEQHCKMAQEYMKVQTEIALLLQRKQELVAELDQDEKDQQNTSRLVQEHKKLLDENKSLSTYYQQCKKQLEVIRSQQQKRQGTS
Method in brief: as §1

[2] = target: T3, UniProt O43402 and related entries
T3 sequence (whole entry): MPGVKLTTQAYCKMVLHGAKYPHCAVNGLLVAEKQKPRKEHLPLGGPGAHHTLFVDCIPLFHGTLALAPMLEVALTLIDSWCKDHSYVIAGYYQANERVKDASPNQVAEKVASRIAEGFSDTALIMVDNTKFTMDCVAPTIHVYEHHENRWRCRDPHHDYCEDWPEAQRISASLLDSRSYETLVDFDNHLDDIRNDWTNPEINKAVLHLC
Method in brief: as §1

[3] = target: T4, UniProt O43861 and related entries
T4 sequence (whole entry): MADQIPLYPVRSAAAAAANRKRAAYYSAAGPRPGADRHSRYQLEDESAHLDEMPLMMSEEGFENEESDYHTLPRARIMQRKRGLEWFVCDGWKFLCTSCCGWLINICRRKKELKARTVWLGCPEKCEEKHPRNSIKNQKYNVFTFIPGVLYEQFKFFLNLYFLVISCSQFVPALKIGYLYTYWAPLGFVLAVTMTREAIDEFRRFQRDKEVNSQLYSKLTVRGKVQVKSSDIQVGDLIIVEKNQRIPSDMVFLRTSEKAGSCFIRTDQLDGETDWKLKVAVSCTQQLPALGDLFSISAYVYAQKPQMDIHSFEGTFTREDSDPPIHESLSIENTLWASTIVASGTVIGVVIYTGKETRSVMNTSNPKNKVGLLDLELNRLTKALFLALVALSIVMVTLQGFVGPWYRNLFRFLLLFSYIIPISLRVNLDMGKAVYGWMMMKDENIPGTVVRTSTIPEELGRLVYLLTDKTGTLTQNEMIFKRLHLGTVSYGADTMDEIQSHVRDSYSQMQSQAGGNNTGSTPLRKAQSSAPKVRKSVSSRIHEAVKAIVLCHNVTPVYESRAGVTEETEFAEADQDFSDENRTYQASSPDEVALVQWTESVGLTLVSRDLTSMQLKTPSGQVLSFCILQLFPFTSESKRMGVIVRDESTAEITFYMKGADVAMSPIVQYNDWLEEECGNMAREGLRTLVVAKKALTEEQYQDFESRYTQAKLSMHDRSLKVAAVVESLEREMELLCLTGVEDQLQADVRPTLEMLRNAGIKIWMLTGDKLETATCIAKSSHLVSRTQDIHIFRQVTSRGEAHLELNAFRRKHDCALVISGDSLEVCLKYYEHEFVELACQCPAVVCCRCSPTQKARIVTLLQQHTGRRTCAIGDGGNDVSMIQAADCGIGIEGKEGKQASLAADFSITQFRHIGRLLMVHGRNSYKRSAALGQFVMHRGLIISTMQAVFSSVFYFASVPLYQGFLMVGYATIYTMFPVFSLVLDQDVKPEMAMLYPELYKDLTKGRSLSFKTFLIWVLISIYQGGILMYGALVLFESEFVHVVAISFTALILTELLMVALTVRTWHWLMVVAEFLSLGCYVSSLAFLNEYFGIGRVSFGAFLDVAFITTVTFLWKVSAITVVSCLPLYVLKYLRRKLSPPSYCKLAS
Method in brief: as §1

ZW10 = target: T5, ZW10 (UniProt O43264)
T5 sequence (whole entry): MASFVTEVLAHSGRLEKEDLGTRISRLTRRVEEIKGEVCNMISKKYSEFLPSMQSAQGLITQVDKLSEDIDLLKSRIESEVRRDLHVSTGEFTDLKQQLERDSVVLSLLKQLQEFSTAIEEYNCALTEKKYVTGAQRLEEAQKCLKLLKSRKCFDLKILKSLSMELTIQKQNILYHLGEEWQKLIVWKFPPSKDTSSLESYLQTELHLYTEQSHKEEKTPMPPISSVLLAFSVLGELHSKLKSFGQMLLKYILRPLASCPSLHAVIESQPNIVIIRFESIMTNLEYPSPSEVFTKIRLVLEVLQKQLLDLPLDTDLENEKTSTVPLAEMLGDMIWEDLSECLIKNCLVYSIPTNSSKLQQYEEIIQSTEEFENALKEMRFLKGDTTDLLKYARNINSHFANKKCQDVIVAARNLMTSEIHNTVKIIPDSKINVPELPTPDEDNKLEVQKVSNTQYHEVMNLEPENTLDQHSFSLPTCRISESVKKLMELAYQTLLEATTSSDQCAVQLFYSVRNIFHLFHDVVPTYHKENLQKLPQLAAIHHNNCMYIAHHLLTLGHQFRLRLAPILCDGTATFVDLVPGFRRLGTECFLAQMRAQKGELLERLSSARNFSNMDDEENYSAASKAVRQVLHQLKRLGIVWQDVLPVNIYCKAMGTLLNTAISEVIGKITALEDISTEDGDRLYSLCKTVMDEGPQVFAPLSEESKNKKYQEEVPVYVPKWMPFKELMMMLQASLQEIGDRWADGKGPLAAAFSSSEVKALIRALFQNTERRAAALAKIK
Method in brief: as §1

**Q.** Which results are given for `Nc1ncnc2c1ncn2[C@@H]1O[C@H](COP(=O)(O)OP(=O)(O)NP(=O)(O)O)[C@@H](O)[C@H]1O` [adenylyl imidodiphosphate]?
**A.** NP40-soluble protein abundance ([1]; concentration: 8mM): 1.04 ± 0.035; NP40-soluble protein abundance ([1]; concentration: 10mM): 1.09 ± 0.055; NP40-soluble protein abundance (UniProt O43318-2|O43318; concentration: 1mM): 1.01 ± 0.01; NP40-soluble protein abundance (UniProt O43318-2|O43318; concentration: 2mM): 1.05 ± 0.05; NP40-soluble protein abundance (UniProt O43318-2|O43318; concentration: 4mM): 1.03 ± 0.029; NP40-soluble protein abundance (UniProt O43318-2|O43318; concentration: 6mM): 1.01 ± 0.039; NP40-soluble protein abundance (UniProt O43318-2|O43318; concentration: 8mM): 0.999 ± 0.012; NP40-soluble protein abundance (UniProt O43318-2|O43318; concentration: 10mM): 0.987 ± 0.013; NP40-soluble protein abundance ([2]; concentration: 1mM): 1.01 ± 0.026; NP40-soluble protein abundance ([2]; concentration: 2mM): 0.945 ± 0.031; NP40-soluble protein abundance ([2]; concentration: 4mM): 0.965 ± 0.041; NP40-soluble protein abundance ([2]; concentration: 6mM): 0.942 ± 0.019; NP40-soluble protein abundance ([2]; concentration: 8mM): 0.979 ± 0.037; NP40-soluble protein abundance ([2]; concentration: 10mM): 0.947 ± 0.048; NP40-soluble protein abundance ([3]; concentration: 1mM): 1.01 ± 0.022; NP40-soluble protein abundance ([3]; concentration: 2mM): 1 ± 0.012; NP40-soluble protein abundance ([3]; concentration: 4mM): 1.01 ± 0.025; NP40-soluble protein abundance ([3]; concentration: 6mM): 0.986 ± 0.013; NP40-soluble protein abundance ([3]; concentration: 8mM): 1 ± 0.041; NP40-soluble protein abundance ([3]; concentration: 10mM): 1.024 ± 0.0049; NP40-soluble protein abundance (ZW10; concentration: 1mM): 0.994 ± 0.031; NP40-soluble protein abundance (ZW10; concentration: 2mM): 0.974 ± 0.043; NP40-soluble protein abundance (ZW10; concentration: 4mM): 0.977 ± 0.047; NP40-soluble protein abundance (ZW10; concentration: 6mM): 0.936 ± 0.064; NP40-soluble protein abundance (ZW10; concentration: 8mM): 0.919 ± 0.081; NP40-soluble protein abundance (ZW10; concentration: 10mM): 0.941 ± 0.07
